Test results published in publication PMC9911748.
Results are given in words; binding and its absence hold for the method and conditions named. In cells and extracts the contact can be indirect. Some binding calls cover weakened binding; strength is not graded here.

Amino acid sequences for entries named in this document (tags omitted). A change or cut given only in a name is not applied to a line headed by its entry.
UniProt Q02447: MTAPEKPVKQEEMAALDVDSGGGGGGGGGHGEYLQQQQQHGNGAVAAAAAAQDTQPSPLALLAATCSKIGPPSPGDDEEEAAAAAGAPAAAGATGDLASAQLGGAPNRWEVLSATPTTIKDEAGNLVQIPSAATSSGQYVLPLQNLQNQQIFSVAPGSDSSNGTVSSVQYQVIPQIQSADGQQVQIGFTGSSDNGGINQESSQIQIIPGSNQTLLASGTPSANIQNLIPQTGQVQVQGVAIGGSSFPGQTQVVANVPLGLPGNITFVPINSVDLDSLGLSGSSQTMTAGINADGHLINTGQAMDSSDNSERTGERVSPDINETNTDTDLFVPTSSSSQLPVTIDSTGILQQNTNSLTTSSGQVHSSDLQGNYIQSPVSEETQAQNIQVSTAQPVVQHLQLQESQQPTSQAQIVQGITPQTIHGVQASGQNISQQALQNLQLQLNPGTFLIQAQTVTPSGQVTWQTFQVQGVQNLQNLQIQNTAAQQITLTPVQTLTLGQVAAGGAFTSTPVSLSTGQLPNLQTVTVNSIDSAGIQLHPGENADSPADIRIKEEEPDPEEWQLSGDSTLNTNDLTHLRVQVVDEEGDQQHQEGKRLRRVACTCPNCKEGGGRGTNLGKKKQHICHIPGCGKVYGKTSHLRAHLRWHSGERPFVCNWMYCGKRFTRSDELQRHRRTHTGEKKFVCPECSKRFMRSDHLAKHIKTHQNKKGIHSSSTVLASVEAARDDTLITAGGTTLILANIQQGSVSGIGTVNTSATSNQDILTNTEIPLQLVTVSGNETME
UniProt P08047: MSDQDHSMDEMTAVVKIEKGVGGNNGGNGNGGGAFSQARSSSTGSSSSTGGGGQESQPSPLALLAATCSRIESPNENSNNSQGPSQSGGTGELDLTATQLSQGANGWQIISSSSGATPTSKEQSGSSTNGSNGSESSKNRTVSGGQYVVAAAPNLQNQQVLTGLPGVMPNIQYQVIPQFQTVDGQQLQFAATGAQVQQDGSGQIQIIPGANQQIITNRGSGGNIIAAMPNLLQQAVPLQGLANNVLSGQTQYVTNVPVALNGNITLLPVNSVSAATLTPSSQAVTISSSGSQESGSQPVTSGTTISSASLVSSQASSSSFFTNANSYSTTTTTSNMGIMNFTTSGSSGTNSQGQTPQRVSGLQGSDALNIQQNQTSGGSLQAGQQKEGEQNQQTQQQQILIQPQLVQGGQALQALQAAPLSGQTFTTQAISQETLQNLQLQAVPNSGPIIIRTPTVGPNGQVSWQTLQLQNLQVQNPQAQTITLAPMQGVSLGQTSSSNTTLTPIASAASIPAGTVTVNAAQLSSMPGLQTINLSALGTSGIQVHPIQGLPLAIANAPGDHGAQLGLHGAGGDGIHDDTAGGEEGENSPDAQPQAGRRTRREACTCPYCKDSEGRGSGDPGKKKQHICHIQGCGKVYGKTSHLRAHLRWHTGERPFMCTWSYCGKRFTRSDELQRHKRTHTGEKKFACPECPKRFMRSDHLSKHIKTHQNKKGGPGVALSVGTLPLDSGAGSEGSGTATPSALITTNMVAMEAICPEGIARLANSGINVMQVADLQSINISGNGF
UniProt Q93009: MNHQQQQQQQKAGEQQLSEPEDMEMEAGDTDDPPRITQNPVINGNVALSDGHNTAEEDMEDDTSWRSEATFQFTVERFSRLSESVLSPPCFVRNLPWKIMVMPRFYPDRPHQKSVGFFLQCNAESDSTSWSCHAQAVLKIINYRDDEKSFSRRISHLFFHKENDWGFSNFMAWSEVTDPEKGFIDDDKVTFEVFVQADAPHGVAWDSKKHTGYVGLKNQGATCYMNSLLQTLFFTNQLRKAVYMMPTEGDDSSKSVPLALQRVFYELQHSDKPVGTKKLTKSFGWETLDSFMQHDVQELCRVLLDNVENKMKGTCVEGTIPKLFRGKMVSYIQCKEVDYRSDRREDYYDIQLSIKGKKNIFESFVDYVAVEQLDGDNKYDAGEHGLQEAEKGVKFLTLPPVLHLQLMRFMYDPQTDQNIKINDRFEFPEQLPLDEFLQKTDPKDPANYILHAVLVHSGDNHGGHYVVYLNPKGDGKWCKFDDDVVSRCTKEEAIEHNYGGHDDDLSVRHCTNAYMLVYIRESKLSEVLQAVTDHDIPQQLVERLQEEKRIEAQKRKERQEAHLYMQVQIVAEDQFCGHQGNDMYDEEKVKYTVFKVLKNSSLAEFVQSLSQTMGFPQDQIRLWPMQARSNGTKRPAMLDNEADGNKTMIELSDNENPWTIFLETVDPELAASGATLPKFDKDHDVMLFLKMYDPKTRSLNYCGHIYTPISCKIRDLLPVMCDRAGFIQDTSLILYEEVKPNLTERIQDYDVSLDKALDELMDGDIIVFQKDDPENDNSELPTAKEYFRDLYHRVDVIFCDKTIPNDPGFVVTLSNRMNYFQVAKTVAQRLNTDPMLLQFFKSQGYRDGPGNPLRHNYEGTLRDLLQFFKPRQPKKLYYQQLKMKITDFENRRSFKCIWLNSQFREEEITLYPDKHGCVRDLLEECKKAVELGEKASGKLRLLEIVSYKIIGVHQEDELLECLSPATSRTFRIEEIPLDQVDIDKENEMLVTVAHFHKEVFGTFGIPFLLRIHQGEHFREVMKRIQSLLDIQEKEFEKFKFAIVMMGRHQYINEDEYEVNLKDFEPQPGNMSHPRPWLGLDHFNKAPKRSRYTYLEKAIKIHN

Experiments:
Flag-Sp3 = Flag-Sp3 (UniProt Q02447); experiment: co-IP; HEK293T cells co-transfected with Flag-Sp1 or Flag-Sp3 and Myc-USP7 deletion mutants; IP lysis buffer, protein A/G magnetic beads, western blot
Flag-Sp1 = Flag-Sp1 (UniProt P08047); experiment: as above
Flag-Sp3-K551R = Flag-Sp3-K551R (UniProt Q02447); experiment: co-IP; HUVECs ectopically expressing Flag-Sp1-WT, Flag-Sp1-K703A, Flag-Sp3-WT or Flag-Sp3-K551R, with or without ACEI; anti-Flag immunoprecipitation, western blot for USP7
Flag-Sp1-K703A = Flag-Sp1-K703A (UniProt P08047); experiment: as above
[1] = target: Sp3 (human (endogenous in HUVECs)) (UniProt Q02447); experiment: co-IP; nuclear subcellular fractions of HUVECs treated with ACEI for up to 90 min, CTR siRNA or HDAC1 siRNA; anti-Sp1 or anti-Sp3 immunoprecipitation, western blot for USP7
[2] = target: Sp1 (human (endogenous in HUVECs)) (UniProt P08047); experiment: as above
[3] = target: Sp3 (human (endogenous in HUVECs)) (UniProt Q02447); experiment: co-IP; HUVECs treated with ACEI; anti-Sp1 or anti-Sp3 immunoprecipitation, western blot for USP7; IP lysis buffer, protein A/G magnetic beads
[4] = target: Sp1 (human (endogenous in HUVECs)) (UniProt P08047); experiment: as above

Measured: binding

Myc-USP7 (from UniProt Q93009 1-1102) (enzyme)
binds: Flag-Sp3 | Flag-Sp1

USP7 (from UniProt Q93009 1-1102) (enzyme)
not listed: Flag-Sp3 | Flag-Sp1
binds: all other assays above
